Where a name gives a salt, the structure may show the parent alone. This is one part of the list. Most values come without repeats; read them as rough.
Each molecule was assayed on M229P (parental melanoma line) (assay: reduction in cell viability relative to untreated/vehicle; higher = more growth inhibition). Conditions: 200 nM; 72 h.

SMILES	reduction in cell viability
C=CCNC1=C2C[C@@H](C)C[C@H](OC)[C@H](O)[C@@H](C)/C=C(\C)[C@H](OC(N)=O)[C@@H](OC)/C=C\C=C(/C)C(=O)NC(=CC1=O)C2=O [Tanespimycin]	< 0%
CCCS(=O)(=O)Nc1ccc(F)c(C(=O)c2c[nH]c3ncc(-c4ccc(Cl)cc4)cc23)c1F [Vemurafenib (PLX4032, RG7204)]	1.17%
Cc1cn2c(-c3cn[nH]c3)cnc2c(Nc2ccc(C(=O)N3CCNCC3)cc2F)n1	< 0%
CCc1cc(/C(C)=N/OCc2ccc(C3CCCCC3)c(C(F)(F)F)c2)ccc1CN1CC(C(=O)O)C1	< 0%
CCn1cc(C(=O)O)c(=O)c2cc(F)c(N3CCNC(C)C3)c(F)c21 (centres undefined) [Lomefloxacin hydrochloride]	< 0%
Cc1c(CN2CCN(C(=O)[C@H](C)O)CC2)sc2c(N3CCOCC3)nc(-c3cnc(N)nc3)nc12	18%
N=C(N)c1ccc(OCCCCCOc2ccc(C(=N)N)cc2)cc1 [Pentamidine isethionate]	< 0%
CC(S)C(=O)NCC(=O)O (centres undefined) [Tiopronin]	< 0%
Nc1nc2[nH]cnc2c(=S)[nH]1 [Tioguanine]	29.6%
O=c1c(O)c(-c2cc(O)c(O)c(O)c2)oc2cc(O)cc(O)c12 [Myricetin]	< 0%
COc1ccccc1N1CCN(CC(O)COc2cccc3ccccc23)CC1 (centres undefined) [Naftopidil]	< 0%
CN1CC[C@H](c2c(O)cc(O)c3c(=O)cc(-c4ccccc4Cl)oc23)[C@H](O)C1 [Flavopiridol]	61.7%
COc1cc(OC)cc(-c2ccc3ncc4ccc(=O)n(-c5ccc(N6CCNCC6)c(C(F)(F)F)c5)c4c3c2)c1	< 0%
O=C(O)C[C@H](O)C[C@H](O)/C=C/c1c(C2CC2)nc2ccccc2c1-c1ccc(F)cc1 [Pitavastatin calcium]	< 0%
C=C1/C(=C\C=C2/CCC[C@]3(C)[C@@H]([C@H](C)/C=C/C=C/C(O)(CC)CC)CC[C@@H]23)C[C@@H](O)C[C@@H]1O [Seocalcitol]	< 0%
CCOc1cc2ncc(C#N)c(Nc3ccc(F)c(Cl)c3)c2cc1NC(=O)/C=C/CN(C)C [Pelitinib]	20.8%
Cc1cccc(-c2[nH]ncc2-c2ccc3ncccc3n2)n1	< 0%
CCC(=O)NCC[C@@H]1CCc2ccc3c(c21)CCO3 [Ramelteon]	< 0%
C[C@H](Cc1cc2c(c(C(N)=O)c1)N(CCCO)CC2)NCCOc1ccccc1OCC(F)(F)F [Silodosin]	< 0%
Nc1ccc(C(=O)Nc2cccc(-c3nc(N4CCOCC4)c4oc5ncccc5c4n3)c2)cn1	< 0%

Molecules from the list above with four or more nitrogen atoms:
SMILES	reduction in cell viability
Cc1cn2c(-c3cn[nH]c3)cnc2c(Nc2ccc(C(=O)N3CCNCC3)cc2F)n1	< 0%
Cc1c(CN2CCN(C(=O)[C@H](C)O)CC2)sc2c(N3CCOCC3)nc(-c3cnc(N)nc3)nc12	18%
N=C(N)c1ccc(OCCCCCOc2ccc(C(=N)N)cc2)cc1 [Pentamidine isethionate]	< 0%
Nc1nc2[nH]cnc2c(=S)[nH]1 [Tioguanine]	29.6%
COc1cc(OC)cc(-c2ccc3ncc4ccc(=O)n(-c5ccc(N6CCNCC6)c(C(F)(F)F)c5)c4c3c2)c1	< 0%
CCOc1cc2ncc(C#N)c(Nc3ccc(F)c(Cl)c3)c2cc1NC(=O)/C=C/CN(C)C [Pelitinib]	20.8%
Cc1cccc(-c2[nH]ncc2-c2ccc3ncccc3n2)n1	< 0%
Nc1ccc(C(=O)Nc2cccc(-c3nc(N4CCOCC4)c4oc5ncccc5c4n3)c2)cn1	< 0%

(continued)

SMILES	reduction in cell viability
O=C(O)c1nc(=O)[nH]c(=O)[nH]1 [Oteracil potassium]	< 0%
Cc1cn([C@H]2C[C@H](N=[N+]=[N-])[C@@H](CO)O2)c(=O)[nH]c1=O [Zidovudine]	< 0%
Cc1cc2cc3c(C)cc(=O)oc3c(C)c2o1 [Trioxsalen]	< 0%
CCCCCCNC(=O)n1cc(F)c(=O)[nH]c1=O [Carmofur]	< 0%
OC[C@H]1O[C@@H](n2cnc3c2N=CNC[C@H]3O)C[C@@H]1O [Pentostatin]	< 0%
N[C@@H](Cc1cc(I)c(Oc2cc(I)c(O)c(I)c2)c(I)c1)C(=O)O [L-Thyroxine]	< 0%
CCCCCCCCCCCCCCCCCCOP(=O)([O-])OC1CC[N+](C)(C)CC1 [Perifosine]	< 0%
CN1C(=O)C[C@@H](C(=O)N[C@@H](Cc2c[nH]cn2)C(=O)N2CCC[C@H]2C(N)=O)NC1=O [Taltirelin]	< 0%
O=C(NC[C@H](O)CO)c1ccncc1Nc1ccc(I)cc1F [Pimasertib]	29.1%
CC(C)C[C@@H](C=O)NC(=O)[C@H](CC(C)C)NC(=O)[C@H](CC(C)C)NC(=O)OCc1ccccc1	80.6%
NC(=O)N1c2ccccc2CC(=O)c2ccccc21 [Oxcarbazepine]	< 0%
O=C1NC(=O)/C(=C/c2ccc3nccc(-c4ccncc4)c3c2)S1	< 0%
NC(=O)c1ccc2[nH]ccc2c1	< 0%
C[C@H]1[C@H](NC(=O)/C(=N\OC(C)(C)C(=O)O)c2csc(N)n2)C(=O)N1S(=O)(=O)O [Aztreonam]	< 0%
CO[C@@H]1[C@@H](OC(N)=O)[C@@H](O)[C@H](Oc2ccc3c(O)c(NC(=O)c4ccc(O)c(CC=C(C)C)c4)c(=O)oc3c2C)OC1(C)C [Novobiocin sodium]	< 0%
C[C@@H]1CC(=O)NN=C1c1ccc(NN=C(C#N)C#N)cc1 [Levosimendan]	< 0%
Nc1cccc(S(=O)(=O)N2CCCN(S(=O)(=O)c3ccc4c(c3)OCCO4)CC2)c1	< 0%
CCOC(=O)N1CCN(/[N+]([O-])=N/Oc2ccc([N+](=O)[O-])cc2[N+](=O)[O-])CC1	< 0%
CC(C)NC[C@@H](C(=O)N1CCN(c2ncnc3c2[C@H](C)C[C@H]3O)CC1)c1ccc(Cl)cc1	< 0%
